# Results taken from PubChem BioAssay AID1347423 (Functional Genomics Laboratory (NCATS/FGL), 2020).
# Among all 52,000 sequences or so, about 210 (0.4%) were called active.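 How the source made its calls: active means gene whose silencing raises cell survival under the drug, median off-target-corrected z-score across its silencing RNAs 2 or more; inactive means the rest.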 This is one part of the list.
# Assay: Resistance to Poly (ADP-Ribose) Polymerase inhibitor: Gene Identification via Genome-wide siRNA Screen
# Details: mouse BRCA2 R2336H ES cells, olaparib, CellTiter-Glo viability; active compounds read high
# Outline: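 Mouse BRCA2 R2336H ES cells were reverse-transfected with siRNA (20 nM final), treated at 48 h with 500 nM olaparib, and read by CellTiter-Glo after 72 h. Scores: MAD-based z per siRNA, median per gene, seed off-target correction.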
row,Sequence,z-score
1,GGAGUUGGAGAAUGACACGTT against Tg737Rpw,inactive: 1.42
2,GGGCACUUCUUCAAUGUAUTT against Arl6ip6,inactive: 0.992
3,GCAUAAUAGCGCAAGCUACTT against Ifi47,inactive: 0.685
4,GGAUGAAGAUGUGGAUCUGTT against Wdr23,inactive: -0.965
5,GGGACACCAAGUUUUCCAUTT against Mpra,inactive: 0.167
6,GCUUAGGUAAUUUCAAGGUTT against Ppp1r15b,inactive: 0.275
7,GGGUCUGGAAUCCAUCCGUTT against Lin28,inactive: 0.716
8,GCUAUGUUAUCACCACCAATT against Kcnab3,inactive: 0.354
9,GGACCUAAUAAAUUAAGCCTT against 2500001H09Rik,inactive: -0.151
10,GGUGCAGGACCAUUUCCAUTT against 8430417G17Rik,inactive: 0.553
11,CCAGCAAAUGGAUAACUUGTT against Epas1,inactive: -0.106
12,CCUAGAUUAAAUACUCGGATT against D030069K18,inactive: -1.17
13,GGCUCCUAGCUGUUUCAGUTT against 4921522K05Rik,inactive: -0.953
14,GGAAUAUGAAGAAGAAUUGTT against Adam7,inactive: -0.56
15,GCGGAACAUCUUAGCUUAATT against 2310042D19Rik,inactive: -0.914
16,GGCUUUAUGACAUCAUUUGTT against 1110008F13Rik,inactive: 1.07
17,GGGCAAGCAGUUCAUUCUGTT against Nr2c1,inactive: 0.609
18,CCGGGAGCUACAAAAACUUTT against Ppp2r5d,inactive: 0.926
19,GGAUUUUCCAUUUCUUCACTT against D2Ertd435e,inactive: -0.433
20,GGGAUACAGAUUUUGUUUATT against Olfr1261,inactive: 0.642
21,GGCUGUUGUACUACACCAATT against Olfr629,inactive: -0.26
22,GCUGACUUGCACAUUCGAUTT against Mpzl1,inactive: 0.657

row,Sequence,z-score
1,GGAGUUGACCACACUGCUUTT against Smtn,inactive: -1.07
2,GCAACGAGCAAAAAGCAUGTT against Htr2a,inactive: 2.35
3,CGUAGAGUUAAUUACACAATT against Gria4,inactive: -0.185
4,CCGUGGUAUCAAUGAUUGGTT against 1110011D13Rik,inactive: 1.94
5,CGUGAUUGAAUCUCAGGAGTT against 5133400G04Rik,inactive: -0.0981
6,CGAACCCUAGCGGAAAUUGTT against Nono,inactive: 0.303
7,GGCACGUAUCAGUGUCAAGTT against Cd3g,inactive: -0.0516
8,UUAUCCCGUGCAAAUGAAGTT against Akr1c19,inactive: -2.26
9,GGAUUUCUACUCUAAGCUGTT against Setdb1,inactive: -0.787
10,GCGAAGUUAAAUCUCAUCATT against Mtl5,inactive: 2.64
11,GCACAUGACCAACAAUACCTT against 4932438A13Rik,inactive: 0.618
12,GGAAGACUUUGAAUACCACTT against Slc4a2,inactive: -0.313
13,GGACUGUUUCCUAUCCACUTT against V2R2,inactive: -0.142
14,GGCAAAGACCCAAGAAGUGTT against 1700029H14Rik,inactive: -0.421
15,GGACCAGGAACAGUUCGAATT against Rela,inactive: -0.247
16,CCAUGUAUAUCUCAUAGCATT against Rnf26,inactive: 0.464
17,GGUCGUAUUGCGCUAUAGCTT against Lnk,inactive: 0.685
18,GCCUGUUCGGGAAUCUUACTT against Olfr297,inactive: -0.396
19,GGAACUUCCCUAUAGUGAATT against Hdac3,inactive: 0.222
20,GGAGAAGAAGAUUUUCCAGTT against Irf2,inactive: -0.436
21,GGUUCAACUUCACACUGAGTT against BC024814,inactive: 1.12
22,GGUGUUUAAAGAUUUCGUUTT against Dhrs2,inactive: 0.996

# Random excerpt: 4 entries already listed, in no set order.
row,Sequence,z-score
6,GCUUAGGUAAUUUCAAGGUTT against Ppp1r15b,inactive: 0.275
1,GGAGUUGGAGAAUGACACGTT against Tg737Rpw,inactive: 1.42
8,GCUAUGUUAUCACCACCAATT against Kcnab3,inactive: 0.354
10,GGUGCAGGACCAUUUCCAUTT against 8430417G17Rik,inactive: 0.553

# (continued)

row,Sequence,z-score
1,GCUGGUUUCAUCCGCCAUATT against Dvl3,inactive: 1.13
2,GGGUUUCUUGUUGGUUUUATT against E130320D18,inactive: 2.88
3,GGUCACAUUUUGUGAUUUUTT against Tmem30b,inactive: 2.24
4,GGAGUACCUAUUUGUCAUCTT against Cnga2,inactive: 0.21
5,GGCACUGUUCGGCAAGAAGTT against Trappc5,inactive: -0.765
6,CGACAUCUCCCUAGACAAGTT against Itm2c,inactive: -1.82
7,CCGUGACAGUCAUGUUGAUTT against Amt,inactive: -1.5
8,GGAGAAAGUCAAGAUCAAATT against Gpr4,inactive: -0.894
9,GGACAGAGUGAAACUUUAUTT against Pcdhga9,inactive: -0.77
10,CCUUCGGAUACUACUUUUCTT against Olfr531,inactive: 1.42
11,CGCUGGUACCUGAAAUAUUTT against Rnf123,inactive: -0.974
12,GGCCAGUCUUAUGAAAUUCTT against Ubp1,inactive: -0.113
13,CCUGUUUGUACAUCCUUGGTT against Olfr748,inactive: -1.13
14,GCCUCAUGUCUACUCGCUUTT against Gpr66,inactive: 0.477
15,GGCCUACGAUAUUUCACAATT against Oosp1,inactive: 0.449
16,GGCCCACAAGGCUGUUUUGTT against Zfp131,inactive: -0.809
17,GGAAGAGAUUUCUAAACUUTT against Mcoln2,inactive: 0.459
18,GCCUUUGAGCUCAUCUAUATT against 4833441J24Rik,inactive: -0.0621
19,GGAAUAUAGCGACAUCAUATT against Apba2,inactive: 0.113
20,GGUUGAUCUAAAUGAAAUGTT against Idi1,inactive: -0.641
21,CCUGCUAAAGGAAUGUCACTT against 2310061C15Rik,inactive: 0.497
22,GCAACACAUUCCUUAUGAUTT against Entpd6,inactive: -0.185
